Results reported in PubChem BioAssay AID743255 (National Center for Advancing Translational Sciences (NCATS), 2014).
Among all 390,000 compounds or so, about 910 (0.23%) were called active. The inconclusive results got no clear call from the source; some entries with a clear call stand among them for comparison. Calls come from the whole dose curve; as a rule, active = well fitted inhibition curve with a large enough effect; inconclusive = small, poorly fitted or top-dose-only effect; inactive = no such curve, though single readings can be large or run the other way. Where the call is inconclusive, the potency comes from a doubtful curve fit.
Note: nearly all actives have a fitted effect of over 60% in size.
Potency is the fitted concentration of half-maximal effect.

The chains behind the UniProt entries cited, without tags or fusion partners. Where a name states a change or a piece, a line headed by the entry shows the natural chain unless it says otherwise.
UniProt O94782: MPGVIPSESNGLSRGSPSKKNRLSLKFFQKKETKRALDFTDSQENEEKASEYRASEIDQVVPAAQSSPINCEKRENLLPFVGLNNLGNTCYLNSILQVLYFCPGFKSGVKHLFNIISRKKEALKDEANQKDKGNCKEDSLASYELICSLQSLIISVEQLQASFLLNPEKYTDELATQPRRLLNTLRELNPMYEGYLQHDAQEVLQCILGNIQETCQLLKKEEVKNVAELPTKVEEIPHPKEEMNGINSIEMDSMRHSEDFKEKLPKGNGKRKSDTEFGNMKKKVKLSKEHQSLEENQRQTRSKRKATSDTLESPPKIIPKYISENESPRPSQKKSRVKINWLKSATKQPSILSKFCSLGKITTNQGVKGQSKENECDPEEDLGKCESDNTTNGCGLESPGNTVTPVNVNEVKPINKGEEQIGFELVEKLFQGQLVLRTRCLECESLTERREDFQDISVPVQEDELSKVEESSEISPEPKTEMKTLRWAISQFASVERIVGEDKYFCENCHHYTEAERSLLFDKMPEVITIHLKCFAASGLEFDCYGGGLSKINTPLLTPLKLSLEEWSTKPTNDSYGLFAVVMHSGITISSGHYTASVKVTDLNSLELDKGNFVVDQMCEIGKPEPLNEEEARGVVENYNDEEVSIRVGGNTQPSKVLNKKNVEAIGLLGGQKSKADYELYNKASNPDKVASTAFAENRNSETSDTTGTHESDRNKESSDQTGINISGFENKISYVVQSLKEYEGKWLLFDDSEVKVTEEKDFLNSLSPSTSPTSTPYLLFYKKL

The compounds below were run against Ubiquitin carboxyl-terminal hydrolase 1 (Homo sapiens) (UniProt O94782) (assay: Inhibitors of USP1/UAF1: Primary Screen). Details: recombinant USP1/UAF1, Ub-Rhodamine cleavage fluorescence; series mostly up to 57.1 µM.
Procedure, shortened: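 High-throughput fluorogenic screen: 1nM USP1/UAF1 complex, Ub-Rho substrate 150nM final, 50mM HEPES pH 7.8 with 0.5mM EDTA, 0.1 mg/ml BSA, 1mM TCEP and 0.01% Tween-20.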
In the case of `Cc1cc(C)c(OCC(=O)N(Cc2ccc(N(C)C)cc2)Cc2ccco2)c(C)c1`, the Potency is reported as inconclusive: 0.631 µM [inhibitor, full curve, poor fit].
For `C[C@H]1C=C(C(=O)O)O[C@@H](OCc2ccc(CO)cc2)C1`, the Potency was inconclusive: 56.2 µM [inhibitor, partial curve, poor fit].
In the case of `O=C(COC(=O)c1cc(-c2ccco2)nc2ccccc12)NCc1ccccc1`, the Potency is reported as “inactive”.
In the case of `COc1ccc(/C=C2\SC(=S)N(CCC(=O)Nc3ccc(C(=O)O)cc3)C2=O)cc1`, the Potency is reported as “inactive”.
For `CCOC(=O)c1c(S(=O)(=O)N2CCC(C(=O)NCc3cccc(OC)c3)CC2)c(C)n(C)c1C`, the Potency was inconclusive: 2.51 µM [inhibitor, full curve, poor fit].
`O=C(NC1CCCCC1)c1ccc(CNc2nc(=S)[nH]c3ccccc23)cc1` was tested, and the Potency was inconclusive: 5.01 µM [inhibitor, partial curve].
With `COc1ccc(-n2c(-c3cccc(F)c3)nc3c(cnn3-c3ccc(C)cc3)c2=O)cc1` the Potency was “inactive”.
`O=C(N/N=C/c1cccc([N+](=O)[O-])c1)c1ccccc1-n1cccc1` was tested, and the Potency was “inactive”.
With `Cc1ccc(-c2cn3nc(N4CCCC(C(=O)NCc5ccccc5F)C4)sc3n2)cc1` (stereo not drawn) the Potency was inconclusive: 126 µM [inhibitor, partial curve, poor fit].
In the case of `COc1ccc(C(=O)c2ccccc2Cl)cc1`, the Potency is reported as “inactive”.
With `COc1ccc(C(=O)c2cn(CC(=O)Nc3cc(OC)cc(OC)c3)c3ccc(OC)cc3c2=O)cc1` the Potency was inconclusive: 6.31 µM [inhibitor, partial curve].
For `Cc1cc(C)cc(C(=O)NC(CC(N)=O)c2ccc(NC3CCCCCC3)c([N+](=O)[O-])c2)c1` (stereo not drawn), the Potency was inconclusive: 39.8 µM [inhibitor, partial curve, poor fit].
With `CCCOc1ccc(C2c3c(oc4ccccc4c3=O)C(=O)N2c2nnc(C(C)C)s2)cc1` (stereo not drawn) the Potency was “inactive”.
In the case of `O=C(O)CC1C(=O)NCCN1CCCc1ccccc1` (stereo not drawn), the Potency is reported as inconclusive: 39.8 µM [inhibitor, partial curve].
`Cc1cccc2c1-c1sc(C(=O)NCCCN3CCc4ccccc4C3)cc1CO2` was tested, and the Potency was inconclusive: 31.6 µM [inhibitor, partial curve].
For `CCn1c(SCC(=O)Nc2cc(C)ccc2F)nnc1-c1ccccc1O`, the Potency was inconclusive: 0.794 µM [inhibitor, full curve, poor fit].
In the case of `S=c1nc(-c2csc3c2CCCC3)[nH][nH]1`, the Potency is reported as inconclusive: 25.1 µM [inhibitor, partial curve].
In the case of `COC(=O)c1ccc(NC(=O)Cn2c(=O)oc3ccccc32)cc1`, the Potency is reported as inconclusive: 89.1 µM [inhibitor, partial curve, poor fit].
